Assay results taken from PMC3869746.
Construct, isoform or probe ends are uncertain for at least one entry. Negatives hold for the conditions tested.

Protein sequences, listed by entry. Tags and fused reporters are not part of them.
UniProt E7CYC3, entry or part of it: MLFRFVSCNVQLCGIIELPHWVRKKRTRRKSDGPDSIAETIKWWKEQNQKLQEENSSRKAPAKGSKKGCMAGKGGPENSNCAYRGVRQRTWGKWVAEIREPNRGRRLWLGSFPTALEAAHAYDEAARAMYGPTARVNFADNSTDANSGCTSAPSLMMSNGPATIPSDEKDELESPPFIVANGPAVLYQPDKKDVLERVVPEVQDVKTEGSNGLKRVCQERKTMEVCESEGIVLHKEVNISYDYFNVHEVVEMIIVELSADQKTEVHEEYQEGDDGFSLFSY

Target: GST-OsDREB2A (Oryza sativa) (UniProt E7CYC3)
Test: EMSA
Settings: not given (EMSA as described previously, ref 7); recombinant protein; residues 1-281; protein details: N-terminal GST (pGEX-4T-2)

| Sequence | binding result |
| --- | --- |
| ATTTCATGGAAGACCTGCTTTCATGGAAGACCTGCTT (double strand) [mGCC (mutated DRE)] | no binding |
| ATTTCATGGCCGACCTGCTTTCATGGCCGACCTGCTT (double strand) [DRE (WT)] | binds |
